Some test systems named below: OR9K2 clone 1389; OR9Q1 A2V clone 1713; OR9Q2 C179R clone 1310; OR9Q2 clone 1177; OR9Q2 clone 1501; pseudo clone 1035; pseudo clone 1218; pseudo clone 1380; pseudo clone 1384; pseudo clone 1417.
Assay in all cases: odorant receptor activation (CRE luciferase / Renilla) (fold of no-odor wells); higher = more activation
Holding throughout (conditions): 100 µM

Chains of the proteins cited; added tags and fusions are not shown. A line that says so, or that is headed by a name, gives the form on record, which may keep a tag or linker.
pseudo, as listed by the source: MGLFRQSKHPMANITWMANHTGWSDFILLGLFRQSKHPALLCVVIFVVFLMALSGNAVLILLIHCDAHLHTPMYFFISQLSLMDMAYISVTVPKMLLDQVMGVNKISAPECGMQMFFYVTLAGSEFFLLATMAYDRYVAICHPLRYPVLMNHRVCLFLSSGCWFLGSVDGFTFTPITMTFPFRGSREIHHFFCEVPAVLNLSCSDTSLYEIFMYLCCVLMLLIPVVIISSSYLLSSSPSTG

The structures appear in SMILES notation. “And” between values parts separate entries of the source, which are not always exact repeats. Equal values may be shown once. The list shows a part of the results. Single wells; the ratio to wells without odorant was worked out here, and repeats agree poorly.

On to `CC(=O)OC1CC2CCC1(C)C2(C)C` (stereo not drawn) [isobornyl acetate], for which the odorant receptor activation with OR9K2 clone 1389 was 0.914; with OR9Q1 A2V clone 1713, 1.46; with OR9Q2 C179R clone 1310, 1.18 and 0.923; with OR9Q2 clone 1177, 0.881; in the assay with OR9Q2 clone 1501 it was 0.984 and 0.981; in the assay with pseudo clone 1035 it was 0.991. The odorant receptor activation was determined as 1.26 in the assay on pseudo clone 1218, 1.05 with pseudo clone 1380, 0.858 with pseudo clone 1384 and 0.978 in the assay with pseudo clone 1417.

Turning to `CC12C=CCC1C1CCC3=CC(=O)CCC3(C)C1CC2` (stereo not drawn) [androstadienone], the odorant receptor activation with OR9K2 clone 1389 is 0.97; in the assay on OR9Q2 C179R clone 1310, 0.799 and 0.99; with OR9Q2 clone 1177 it was 1.18; in the assay with OR9Q2 clone 1501, 0.803 and 1.05; in the assay with pseudo clone 1035, 1.57; in the assay on pseudo clone 1218, 1.16. Further, the figures for the odorant receptor activation with pseudo clone 1380, in the assay on pseudo clone 1384 and in the assay with pseudo clone 1417 were 1.04, 0.867 and 0.85, respectively.

As for `CC(=O)c1ccccc1` [acetophenone], the odorant receptor activation in the assay with OR9K2 clone 1389 is 0.929; in the assay on OR9Q2 C179R clone 1310 it was 1.14; in the assay on OR9Q2 clone 1177, 1.23; in the assay with OR9Q2 clone 1501, 1.01 and 0.691; in the assay with pseudo clone 1035, 0.679; with pseudo clone 1218, 1.21. Further, the values for the odorant receptor activation in the assay on pseudo clone 1380, with pseudo clone 1384 and in the assay with pseudo clone 1417 were 0.785, 0.931 and 0.81, respectively.

For the compound `CC12CCC(C1)C(C)(C)C2=O` (stereo not drawn) [fenchone], the odorant receptor activation in the assay on OR9K2 clone 1389 worked out at 0.882; in the assay on OR9Q1 A2V clone 1713 it was 0.624; with OR9Q2 C179R clone 1310, 0.997; with OR9Q2 clone 1177, 0.944; in the assay with OR9Q2 clone 1501, 0.897; in the assay on pseudo clone 1035 it was 0.973. The odorant receptor activation in the assay with pseudo clone 1218 turned out to be 1.05; in the assay on pseudo clone 1380 it was 0.968; in the assay with pseudo clone 1384, 0.78; with pseudo clone 1417 it was 1.3.

`C=C(C)C1CCC2=CC(=O)CC(C)C2(C)C1` (stereo not drawn) [amyl laurate] showed an odorant receptor activation with OR9Q1 A2V clone 1713 of 1.37.

`CC1=CCC(C(C)(C)O)CC1` (stereo not drawn) [terpineol]: the odorant receptor activation is 1.21 in the assay on OR9K2 clone 1389; 0.829 with OR9Q1 A2V clone 1713; 0.88 in the assay with OR9Q2 C179R clone 1310; 1.11 in the assay with OR9Q2 clone 1177; 0.809 in the assay on OR9Q2 clone 1501; 1.09 in the assay on pseudo clone 1035. In addition, the odorant receptor activation in the assay on pseudo clone 1218 worked out at 1.2; in the assay on pseudo clone 1380, 1.06; in the assay with pseudo clone 1384, 1.11; with pseudo clone 1417, 1.18.

With `CCCCCC(C)=O` [2-heptanone], the odorant receptor activation in the assay on OR9K2 clone 1389 is 0.825; with OR9Q2 C179R clone 1310, 2.16; with OR9Q2 clone 1177, 1.34; in the assay on OR9Q2 clone 1501 it was 1.22 and 0.552; in the assay with pseudo clone 1035, 0.503; in the assay on pseudo clone 1218, 1.26. For the same compound, the odorant receptor activation came out at 0.878 in the assay with pseudo clone 1380, 0.962 in the assay on pseudo clone 1384 and 0.892 with pseudo clone 1417.

`COC(=O)c1ccccc1O` [methyl salicylate]: the odorant receptor activation turned out to be 1.07 in the assay on OR9K2 clone 1389; 1.47 with OR9Q1 A2V clone 1713; 0.693 in the assay with OR9Q2 C179R clone 1310; 0.84 in the assay with OR9Q2 clone 1177; 1.06 in the assay on OR9Q2 clone 1501; 1.03 in the assay on pseudo clone 1035. Besides, the odorant receptor activation in the assay with pseudo clone 1218 came to 0.847; in the assay on pseudo clone 1380 it was 1.05; in the assay with pseudo clone 1384, 1.11; with pseudo clone 1417, 1.07.

`COC(=O)c1ccccc1` [methyl benzoate]: the odorant receptor activation is 0.801 in the assay with OR9K2 clone 1389; 1.03 in the assay on OR9Q2 C179R clone 1310; 0.837 in the assay on OR9Q2 clone 1177; 0.912 and 0.778 in the assay with OR9Q2 clone 1501; 0.975 in the assay with pseudo clone 1035; 0.696 in the assay with pseudo clone 1218. The odorant receptor activation with pseudo clone 1380 came out at 0.841; in the assay on pseudo clone 1384, 0.825; with pseudo clone 1417, 0.775.

Turning to `C=CC(C)(O)CCC=C(C)C` (stereo not drawn) [linalool], the odorant receptor activation is 0.764 with OR9K2 clone 1389; 1.48 in the assay with OR9Q1 A2V clone 1713; 1.13 in the assay on OR9Q2 C179R clone 1310; 1.14 with OR9Q2 clone 1177; 0.814 in the assay on OR9Q2 clone 1501; 1.05 with pseudo clone 1035. For the same compound, the odorant receptor activation in the assay on pseudo clone 1218 was found to be 1; in the assay with pseudo clone 1380, 0.894; in the assay with pseudo clone 1384 it was 1.12; in the assay on pseudo clone 1417 it was 0.722.

In the case of `CCCCCCCOC(C)=O` [heptyl acetate], the odorant receptor activation in the assay on OR9K2 clone 1389 was 0.931; in the assay with OR9Q1 A2V clone 1713, 0.705; in the assay with OR9Q2 C179R clone 1310, 0.98 and 0.893; with OR9Q2 clone 1177, 0.912; with OR9Q2 clone 1501, 0.706 and 1.05; in the assay with pseudo clone 1035, 1.94. Besides, the odorant receptor activation in the assay with pseudo clone 1218 came out at 1.02; in the assay with pseudo clone 1380, 1.2; in the assay on pseudo clone 1384, 0.96; in the assay with pseudo clone 1417, 1.05.

Consider `CC(C)CC(=O)O` [isovaleric acid], for which the odorant receptor activation amounted to 0.79 in the assay on OR9K2 clone 1389; 1.82 in the assay with OR9Q1 A2V clone 1713; 0.869 in the assay with OR9Q2 C179R clone 1310; 1.19 in the assay with OR9Q2 clone 1177; 0.808 in the assay with OR9Q2 clone 1501; 1.28 in the assay on pseudo clone 1035. Moreover, the odorant receptor activation amounted to 1.27 with pseudo clone 1218, 1.07 in the assay on pseudo clone 1380, 0.834 in the assay with pseudo clone 1384 and 0.643 with pseudo clone 1417.

`CC(C)(O)CCCC1=CCC(C=O)CC1` (stereo not drawn) [lyral] had an odorant receptor activation in the assay on OR9Q1 A2V clone 1713 of 0.804.

`CC(C)CCC(=O)O` [4-methylvaleric acid]: the odorant receptor activation with OR9K2 clone 1389 came out at 1.53; in the assay with OR9Q1 A2V clone 1713 it was 0.646; in the assay on OR9Q2 C179R clone 1310, 1.04; in the assay with OR9Q2 clone 1177, 0.706; with OR9Q2 clone 1501, 1.1; in the assay with pseudo clone 1035 it was 1.26. In addition, the odorant receptor activation was determined as 0.845 in the assay on pseudo clone 1218, 0.768 with pseudo clone 1380, 1.26 with pseudo clone 1384 and 1.16 in the assay on pseudo clone 1417.

`CCCCCOC(C)=O` [n-amyl acetate]: the odorant receptor activation was 0.803 in the assay on OR9K2 clone 1389; 0.841 in the assay on OR9Q1 A2V clone 1713; 0.857 with OR9Q2 C179R clone 1310; 0.644 in the assay on OR9Q2 clone 1177; 1.01 and 0.695 in the assay with OR9Q2 clone 1501; 1.39 in the assay on pseudo clone 1035. The odorant receptor activation was found to be 0.529 in the assay on pseudo clone 1218, 0.724 in the assay with pseudo clone 1380, 0.82 with pseudo clone 1384 and 0.946 with pseudo clone 1417.

As for `CCCCCCCCOC(C)=O` [octyl acetate], the odorant receptor activation amounted to 1.19 with OR9K2 clone 1389; 0.927 in the assay on OR9Q1 A2V clone 1713; 1.11 in the assay with OR9Q2 C179R clone 1310; 1.32 with OR9Q2 clone 1177; 0.845 in the assay on OR9Q2 clone 1501; 0.932 in the assay with pseudo clone 1035. Also, the odorant receptor activation in the assay on pseudo clone 1218 was 0.901; in the assay on pseudo clone 1380, 1.03; in the assay on pseudo clone 1384, 1.18; in the assay with pseudo clone 1417, 0.743.
